In PubChem BioAssay AID248 (DTP/NCI, 2004):
The list does not hold the whole screen: it is rich in T/C values a quarter to a half above the control, in often repeated tests (any T/C) and in doses without a T/C. Further doses and runs are listed elsewhere. T/C gives the treated animals as a percentage of the vehicle group. Some doses have a count of surviving animals in place of a T/C: the source files T/C as zero there, which appears to mark a toxic dose or a test without result, not a measured value. Some doses without a T/C left all or most animals alive at the check, yet need not have been tolerated: survival well below the control is almost never listed, so the zero probably covers shortened survival too. Counts of survivors are from the toxicity check (mostly the fifth day) where no day follows; animals may have died later. Schedules are NCI's codes, read here as Q, the interval in days (D) or hours (H), X, the number of doses. Some doses were run more than once; their values stand side by side, smallest first. Some schedules carry Z or #; the key to these is not given. Where survival is the endpoint, this PubChem deposit counts one and a half times the control or more as active, and values a quarter to a half above the control carry no call in these data; other NCI protocols may use other cut-offs.

Tested on: L1210 leukemia ip in BDF1 mice, survival T/C
Experiment: NCI In Vivo Anticancer Drug Screen. Data for tumor model L1210 Leukemia (intraperitoneal) in B6D2F1 (BDF1) mice
Conditions: T/C endpoint: mean survival time, higher T/C = longer survival
[1] = dose: 400.0 mg/kg/injection, schedule: Q01DX009 (ip), vehicle: saline
[2] = dose: 400.0 mg/kg/injection, schedule: Q01DX009 (ip), vehicle: Klucel (hydroxypropylcellulose) (HPC)
[3] = dose: 100.0 mg/kg/injection, schedule: Q01DX001 (ip), vehicle: saline
[4] = dose: 200.0 mg/kg/injection, schedule: Q01DX001 (ip), vehicle: saline
[5] = dose: 400.0 mg/kg/injection, schedule: Q01DX001 (ip), vehicle: saline
[6] = dose: 200.0 mg/kg/injection, schedule: Q01DX009 (ip), vehicle: gum acacia
[7] = dose: 400.0 mg/kg/injection, schedule: Q01DX009 (ip), vehicle: gum acacia
[8] = dose: 400.0 mg/kg/injection, schedule: Q01DX001 (ip), vehicle: carboxymethylcellulose (CMC)
[9] = dose: 100.0 mg/kg/injection, schedule: Q01DX009 (ip), vehicle: saline with Tween-80
[10] = dose: 200.0 mg/kg/injection, schedule: Q01DX009 (ip), vehicle: saline with Tween-80
[11] = dose: 400.0 mg/kg/injection, schedule: Q01DX009 (ip), vehicle: saline with Tween-80
[12] = dose: 100.0 mg/kg/injection, schedule: Q01DX009 (ip), vehicle: Klucel (hydroxypropylcellulose) (HPC)
[13] = dose: 200.0 mg/kg/injection, schedule: Q04DX002 (ip), vehicle: saline with Tween-80
[14] = dose: 50.0 mg/kg/injection, schedule: Q01DX009 (ip), vehicle: Klucel (hydroxypropylcellulose) (HPC)
[15] = dose: 200.0 mg/kg/injection, schedule: Q01DX009 (ip), vehicle: Klucel (hydroxypropylcellulose) (HPC)

With `CC(=O)C1C(=O)C(=O)OC1C` (stereo unspecified) as the compound, how does the survivor count (dose: 400.0 mg/kg/injection, schedule: Q04DX003 (ip), vehicle: alcohol) read?
Its survivor count is 0 of 6.

How did the survivor count (dose: 200.0 mg/kg/injection, schedule: Q01DX009 (ip), vehicle: saline) turn out when `CC(=O)Nc1cc(NC(C)=O)cc([N+](=O)[O-])c1` was run?
The survivor count was 6 of 6.

And the survivor count [1]?
Its survivor count is 2 of 6.

For `O=C(Nc1ccc(OCc2ccccc2)cc1)c1ccc([N+](=O)[O-])s1`, which survivor count (dose: 50.0 mg/kg/injection, schedule: Q01DX005 (ip), vehicle: water) is on record?
The survivor count was 4 of 4.

And the survivor count (dose: 100.0 mg/kg/injection, schedule: Q01DX005 (ip), vehicle: water)?
Its survivor count is 4 of 4.

What about the survivor count (dose: 200.0 mg/kg/injection, schedule: Q01DX005 (ip), vehicle: water) of the same compound?
Its survivor count is 3 of 4.

`Cc1nn(-c2ccccc2)c(N)c1C#N` was tested. Which survivor count [1] did it give?
Its survivor count is 3 of 6.

Which survivor count [2] does the source give for `CCC1CN2C(=N1)c1cc(Cl)ccc1-c1ccc(Cl)cc12` (stereo unspecified) here?
The survivor count was 2 of 6.

Which survivor count (dose: 15.0 mg/kg/injection, schedule: Q01DX Z (oral), vehicle: methylcellulose (MC)) does the source give for `NC(N)=N/N=C\c1ccc(C2CCNCC2)cc1` here?
Its survivor count is 3 of 6.

And the survivor count (dose: 30.0 mg/kg/injection, schedule: Q01DX Z (oral), vehicle: methylcellulose (MC))?
Its survivor count is 5 of 6.

What about the survivor count (dose: 60.0 mg/kg/injection, schedule: Q01DX Z (ip), vehicle: methylcellulose (MC)) of the same compound?
The survivor count was 2 of 6.

And the survivor count (dose: 60.0 mg/kg/injection, schedule: Q01DX Z (oral), vehicle: methylcellulose (MC))?
The survivor count was 3 of 6.

What about the survivor count (dose: 120.0 mg/kg/injection, schedule: Q01DX Z (ip), vehicle: methylcellulose (MC)) of the same compound?
Its survivor count is 0 of 6.

And the survivor count (dose: 120.0 mg/kg/injection, schedule: Q01DX Z (oral), vehicle: methylcellulose (MC))?
Its survivor count is 1 of 6 and 3 of 6.

Which results are given for `Oc1ccc(C2=CSC3=NCCN23)cc1`?
survivor count [3]: 2 of 4; survivor count [4]: 0 of 4; survivor count [5]: 0 of 4

With `CC(=O)O[C@@]1(C)C(=O)OCC2=CCN3CC[C@@H](OC(=O)[C@H](C)[C@]1(C)OC(C)=O)[C@@H]23` as the compound, how does the survivor count [4] read?
Its survivor count is 0 of 4.

And the survivor count [5]?
Its survivor count is 0 of 4.

How did the survivor count [3] turn out when `CC[N+](C)(CC)CCCN(C)C(=O)C(c1ccccc1)c1ccccc1` was run?
Its survivor count is 0 of 6.

What about the survivor count (dose: 115.0 mg/kg/injection, schedule: Q04DX003 (ip), vehicle: saline) of the same compound?
The survivor count was 2 of 6.

And the survivor count (dose: 170.0 mg/kg/injection, schedule: Q04DX003 (ip), vehicle: saline)?
Its survivor count is 2 of 6.

And the survivor count [4]?
The survivor count was 0 of 6.

What about the survivor count [5] of the same compound?
The survivor count was 0 of 6.

What does the source list for `Nc1ccc(Cc2ccc(N)cc2)cc1`?
survivor count [6]: 0 of 6; survivor count [7]: 0 of 6

With `CN(C)/C=C(\C#N)C=O` as the compound, how does the survivor count (dose: 300.0 mg/kg/injection, schedule: Q01DX001 (ip), vehicle: saline) read?
The survivor count was 1 of 6.

`CC(C)C1SC(=S)NC1=O` (stereo unspecified) was tested. Which survivor count [5] did it give?
Its survivor count is 1 of 6.

What does the source list for `CC(C)(Oc1ccc(Cl)cc1Cl)C(=O)O`?
survivor count [6]: 5 of 6; survivor count [7]: 0 of 6

Which survivor count (dose: 1.0 mg/kg/injection, schedule: Q01DX001 (ip), vehicle: saline) does the source give for `C[N+]1(CCCNC2=CC(=O)C(NCCC[N+]3(C)CCCCC3)=CC2=O)CCCCC1` here?
The survivor count was 2 of 6.

And the survivor count (dose: 2.0 mg/kg/injection, schedule: Q01DX001 (ip), vehicle: saline)?
Its survivor count is 0 of 6.

What about the survivor count (dose: 4.0 mg/kg/injection, schedule: Q01DX001 (ip), vehicle: saline) of the same compound?
The survivor count was 1 of 6.

What about the survivor count (dose: 5.0 mg/kg/injection, schedule: Q01DX001 (ip), vehicle: saline) of the same compound?
Its survivor count is 0 of 6.

What about the survivor count (dose: 8.0 mg/kg/injection, schedule: Q01DX001 (ip), vehicle: saline) of the same compound?
Its survivor count is 0 of 6.

And the survivor count (dose: 10.0 mg/kg/injection, schedule: Q01DX001 (ip), vehicle: saline)?
Its survivor count is 0 of 6.

What about the survivor count (dose: 20.0 mg/kg/injection, schedule: Q01DX001 (ip), vehicle: saline) of the same compound?
The survivor count was 0 of 6.

What about the survivor count (dose: 40.0 mg/kg/injection, schedule: Q01DX001 (ip), vehicle: saline) of the same compound?
Its survivor count is 0 of 6.

What about the survivor count (dose: 80.0 mg/kg/injection, schedule: Q01DX001 (ip), vehicle: saline) of the same compound?
Its survivor count is 0 of 6.

And the survivor count [3]?
Its survivor count is 0 of 6.

And the survivor count [4]?
Its survivor count is 0 of 6.

And the survivor count [5]?
Its survivor count is 0 of 6.

Which results are given for `O=[N+]([O-])c1ccc(SCCCN2CCCCC2)c([N+](=O)[O-])c1`?
survivor count (dose: 100.0 mg/kg/injection, schedule: Q01DX001 (ip), vehicle: carboxymethylcellulose (CMC)): 1 of 4; survivor count (dose: 200.0 mg/kg/injection, schedule: Q01DX001 (ip), vehicle: carboxymethylcellulose (CMC)): 0 of 4; survivor count [8]: 0 of 4

With `N#Cc1nc2nc(C(F)(F)F)[nH]c2nc1C#N` as the compound, how does the survivor count (dose: 50.0 mg/kg/injection, schedule: Q04DX003 (ip), vehicle: saline with Tween-80) read?
The survivor count was 5 of 6.

And the survivor count [9]?
Its survivor count is 0 of 6.

And the survivor count [10]?
The survivor count was 0 of 6.

And the survivor count [11]?
The survivor count was 0 of 6.

For `Nc1ccc2c(c1)Cc1c(F)ccc(F)c1-2`, which survivor count [8] is on record?
Its survivor count is 1 of 4.

`CC(C)c1ccc(/C=N\[N+](C)(C)C)cc1` was tested. Which survivor count (dose: 400.0 mg/kg/injection, schedule: Q04DX003 (ip), vehicle: saline) did it give?
Its survivor count is 0 of 3.

How did the survivor count [12] turn out when `O=C1c2ccccc2C(=O)N1N(c1ccccc1)c1ccccc1` was run?
The survivor count was 3 of 6.

How did the T/C [9] turn out when `Cc1cccc(NC(=S)NC(=O)CCc2ccccc2)c1C` was run?
The T/C was 100 and 103 % of control.

What about the survivor count [9] of the same compound?
The survivor count was 3 of 3.

What about the T/C [10] of the same compound?
The T/C was 90 % of control.

What about the survivor count [10] of the same compound?
The survivor count was 3 of 3 and 6 of 6.

And the survivor count [13]?
Its survivor count is 3 of 3.

What about the survivor count [11] of the same compound?
Its survivor count is 0 of 3 and 1 of 6.

`O=C1Cc2ccccc2CN1` was tested. Which survivor count (dose: 300.0 mg/kg/injection, schedule: Q01DX001 (ip), vehicle: acetone) did it give?
Its survivor count is 2 of 6.

How did the survivor count [13] turn out when `C=C1CC2(OC1=O)C(=O)N(C)c1ccc(I)cc12` (stereo unspecified) was run?
The survivor count was 2 of 3.

What about the survivor count (dose: 400.0 mg/kg/injection, schedule: Q04DX002 (ip), vehicle: saline with Tween-80) of the same compound?
Its survivor count is 1 of 3.

How did the survivor count [12] turn out when `Oc1ccccc1/C=N/c1ccccn1` was run?
The survivor count was 2 of 6.

How did the survivor count [14] turn out when `COc1ccc(OC)c(/C=C/c2ccc(NC(=O)Nc3ccccc3Cl)cc2)c1` was run?
Its survivor count is 6 of 6.

What about the survivor count [12] of the same compound?
Its survivor count is 6 of 6.

And the survivor count [15]?
The survivor count was 6 of 6.

What about the survivor count (dose: 400.0 mg/kg/injection, schedule: Q04DX002 (ip), vehicle: Klucel (hydroxypropylcellulose) (HPC)) of the same compound?
Its survivor count is 3 of 3.

Which survivor count [8] does the source give for `BrCc1ccc(Br)cc1` here?
The survivor count was 4 of 4.

Which survivor count [14] does the source give for `Cc1ccc2nc(C#N)c(C#N)nc2c1` here?
Its survivor count is 2 of 6.

And the survivor count [12]?
The survivor count was 0 of 6 and 1 of 6.

And the survivor count [15]?
The survivor count was 0 of 6.

What about the survivor count [2] of the same compound?
The survivor count was 0 of 6.
